Source: article PMC5508335 (Journal of Veterinary Internal Medicine, 2017)

Test system: healthy cats
Conditions: 150 mg once daily for 21 days with placebo or synbiotic; 16 cats

## CCC[C@@H]1C[C@@H](C(=O)N[C@@H]([C@H]2O[C@H](SC)[C@H](O)[C@@H](O)[C@H]2O)[C@H](C)Cl)N(C)C1 [clindamycin]
  development of antibiotic-associated gastrointestinal signs (AAGS): All cats developed AAGS
